Here are results for 42 sequences from article PMC7819943, “Rice protein-binding microarrays: a tool to detect cis-acting elements near promoter regions in rice”.

By UniProt entry, the sequences of proteins in these tests, tags left out.
UniProt Q0JBA9, entry or part of it: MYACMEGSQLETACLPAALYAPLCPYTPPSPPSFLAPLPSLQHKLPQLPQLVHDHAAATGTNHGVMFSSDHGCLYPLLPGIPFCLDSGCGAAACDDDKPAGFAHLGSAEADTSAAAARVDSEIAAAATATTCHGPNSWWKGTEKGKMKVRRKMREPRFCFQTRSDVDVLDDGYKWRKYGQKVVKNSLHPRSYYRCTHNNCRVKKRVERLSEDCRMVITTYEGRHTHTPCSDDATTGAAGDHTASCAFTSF

The list shows a part of the results.

The assay deals with OsWRKY34 (Oryza sativa, UniProt Q0JBA9 1-250). Kind of assay: protein-binding microarray (RPBM); PBS, 2% BSA, 51.3 ng/ul salmon testes DNA, 50 uM zinc acetate, 200 nM TF, 25 C, 1 h; high values mean tight binding. Particulars: protein: recombinant; tags: N-terminal polyhistidine and DsRed monomer fusion (pET32a); label: CyDye5-dUTP incorporated in the synthesized complementary strand; 3' TTTTT single-stranded linker to array surface; dsDNA, one strand shown. In short, it runs like this:
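Transcription factors were each fused at the N-terminus to a polyhistidine tag plus DsRed and expressed in E. coli BL21-CodonPlus before Ni–NTA purification. Binding to a double-stranded custom Agilent array was carried out with 200 nM protein at 25 °C for 1 h in PBS, 2% BSA, salmon testes DNA and 50 µM zinc acetate. The binding signal is per-feature fluorescence intensity, in arbitrary units, on an Axon 4000B scanner.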
As to “TTTTAGCACATGTTGACCGTTCGTCTTATTCAAAAAATTTCGGAGTCACCTAGTGCAG”, the binding signal is 9160 fluorescence intensity (a.u.).
The result for “TTTGCTCTCGCTTGCATTTACACCATGATTACTCCTAATCCGGAGTCACCTAGTGCAG” reads 8390 fluorescence intensity (a.u.); that for “TCCTTCCCACCTACTCTCTCCTACCACACACTTGTCTCTCCGGAGTCACCTAGTGCAG”, 9050 fluorescence intensity (a.u.); that for “ACTTGGTTGATCATGATTTTTATTTGGCGATGTCATCTCACGGAGTCACCTAGTGCAG”, 10600 fluorescence intensity (a.u.).
The same measure for “GTTATCGTCATTACGTCAATACGTGTTTTCGAAAATAATTCGGAGTCACCTAGTGCAG”: 8450 fluorescence intensity (a.u.); for “TCTCTCTCTCTCTCTCTTTCTCTCTCTCGCCTCGCGAAACCGGAGTCACCTAGTGCAG”: 9900 fluorescence intensity (a.u.).
The same measure for “ATGTAGAAAATTTTAACAGCTATCTTTTTTTTTGGGCGGGCGGAGTCACCTAGTGCAG”: 11600 fluorescence intensity (a.u.); for “GCCGGTCTCCTCCCCGCCACCGCCGCCGCCGCCGCCAATGCGGAGTCACCTAGTGCAG”: 8650 fluorescence intensity (a.u.).
In the case of “GTATACATGTTTCAATTTTTTTCTGGTATATTTAGTTTTTCGGAGTCACCTAGTGCAG”, the binding signal is 8320 fluorescence intensity (a.u.).
The result for “CTAAGATACTCTTCCACTCTTCCTTGCTCCATCAGTATTACGGAGTCACCTAGTGCAG” reads 8040 fluorescence intensity (a.u.); that for “CTCCGTCCTTACCTACCCGTGGAATCGGTCGTCGCTCATCCGGAGTCACCTAGTGCAG”, 14400 fluorescence intensity (a.u.); that for “CGATGCACCATATTCTTTATTTTTTCGCCCTTTACAGTCTCGGAGTCACCTAGTGCAG”, 11100 fluorescence intensity (a.u.).
For “TAAAATCGCATCCGTTGTTGCTTCATACCCATGTTCCCCACGGAGTCACCTAGTGCAG”, the binding signal is 9020 fluorescence intensity (a.u.).
The result for “CCATGGCGGGGTGTATTGTTGTTGTATTTGGGGTTCTGGTCGGAGTCACCTAGTGCAG” reads 19200 fluorescence intensity (a.u.); that for “CCATTCTCCTTGAGCATATGTATCCCAATTGATTTGTAAACGGAGTCACCTAGTGCAG”, 9370 fluorescence intensity (a.u.); that for “AGCACAAATATCACAACCTGACCCACATTAGTCACACGCACGGAGTCACCTAGTGCAG”, 8360 fluorescence intensity (a.u.).
The same measure for “TCTTAAATATGCCGGCTTATTTTGTACTCCTCTACACCTGCGGAGTCACCTAGTGCAG”: 8170 fluorescence intensity (a.u.); for “GTGTCCAACTTTGACTGTCCATCTTATATGAAATTTTTTTCGGAGTCACCTAGTGCAG”: 9230 fluorescence intensity (a.u.); for “AGGTTCAACACCTCCCATTGCTCGCAAGAATGTCTGCAGCCGGAGTCACCTAGTGCAG”: 8200 fluorescence intensity (a.u.).
On to “CTGGGCAAAATCTCTCCCATACATACACTACAGCGGCGAACGGAGTCACCTAGTGCAG”, for which the binding signal is 9910 fluorescence intensity (a.u.).
The same measure for “TTGGAGGTCCAGTGTGATCGTATCGTCCGTGCTGGCTCTGCGGAGTCACCTAGTGCAG”: 8240 fluorescence intensity (a.u.); for “GCTTCATCACTCCATCTCGCCTTGTCTCATTCCAAGTATACGGAGTCACCTAGTGCAG”: 9070 fluorescence intensity (a.u.).
The result for “GTTCTTCCATCCTCGTCGTGCCGACTCCTCCTGTCCTCCACGGAGTCACCTAGTGCAG” reads 8500 fluorescence intensity (a.u.).
As for “GTGCCGACCTCCATCGCCGGATTTCCTTTTGCGTACCTCACGGAGTCACCTAGTGCAG”, the binding signal was 10100 fluorescence intensity (a.u.).
The same measure for “CGGGGTTTTATCATAGTTGTTGCACTGGCTTGAATTGTTTCGGAGTCACCTAGTGCAG”: 8170 fluorescence intensity (a.u.); for “TGCTATTGCGCAACGTCGAGCTCATCTCTATACCACACCGCGGAGTCACCTAGTGCAG”: 11100 fluorescence intensity (a.u.); for “CTCCTTGGCCCGTTTGGTCTCTGTGTGGGTTGGTAAAGACCGGAGTCACCTAGTGCAG”: 9810 fluorescence intensity (a.u.).
The same measure for “TTGCATAGTGGTTTATATCATCTTTATCTACCTTGTCAAACGGAGTCACCTAGTGCAG”: 10100 fluorescence intensity (a.u.).
The result for “AATCGAACAGGCTGAGGTATTCCACGATCGCACACTTACCCGGAGTCACCTAGTGCAG” reads 8780 fluorescence intensity (a.u.); that for “GAGAAAATTGTTAGTGTGCCATCTTCAAATATGGGTTTCACGGAGTCACCTAGTGCAG”, 8190 fluorescence intensity (a.u.).
As for “GAACTCACCACACACAACATGTCATTTGTTCTACATGGATCGGAGTCACCTAGTGCAG”, the binding signal is 8890 fluorescence intensity (a.u.).
The same measure for “ACTGAAGAATTGTCACTGTTTTTCCAGCTGAAGTAATTTACGGAGTCACCTAGTGCAG”: 9420 fluorescence intensity (a.u.).
The result for “TGGGTTTGCAAGTCTAAAAAGGGAGTGGGGTGGCATGGTGCGGAGTCACCTAGTGCAG” reads 9100 fluorescence intensity (a.u.); that for “GGTTTTAAAGGGGTTCCATACACGTATGATAATAAGAGACCGGAGTCACCTAGTGCAG”, 8180 fluorescence intensity (a.u.); that for “AGAGGGAATGGGACTATGGGAGTTTAATTAGGATATTTGACGGAGTCACCTAGTGCAG”, 8750 fluorescence intensity (a.u.).
The result for “AACAAGGGAGGGAGGGGCGGCGATCTCCATCTGGCGAGCACGGAGTCACCTAGTGCAG” reads 10900 fluorescence intensity (a.u.); that for “GGTGAAAGCTAGGAACACACAACCCACACGCCTCGCTGCCCGGAGTCACCTAGTGCAG”, 8990 fluorescence intensity (a.u.).
As to “ACCAAAAAACAACAACACCTGCCAATTACTCCTCGCGGTTCGGAGTCACCTAGTGCAG”, the binding signal is 8440 fluorescence intensity (a.u.).
The result for “ACTCTTCTGTTTTCCTGCGCTGTGTAATGTCAAAATTCTCCGGAGTCACCTAGTGCAG” reads 13000 fluorescence intensity (a.u.); that for “CTGCATGGTCAGCTACTTGCAGCTGCTTCTGGTTCTTCACCGGAGTCACCTAGTGCAG”, 8230 fluorescence intensity (a.u.).
The same measure for “TCTCCCGCTGACTGACACCTCAAAACCGGCCGTCCCACGACGGAGTCACCTAGTGCAG”: 11300 fluorescence intensity (a.u.).
The same measure for “ACTTAAAGCACTTTTTCTCCGTCTTAATTGTGATCTTGTACGGAGTCACCTAGTGCAG”: 11200 fluorescence intensity (a.u.).
